System: HepG2 human HCC cells
Experiment: MTT cytotoxicity assay with median-effect / combination index analysis
Type: cell-based
Settings: HepG2, 24-Hour Treatment
Procedure: Cytotoxicity assay. […] M4N was used at concentrations between 0 and 80 μM. For the combination of M4N and sorafenib a constant molar ratio of 2:1 (M4N:sorafenib) was used. Twenty four hours after drug addition, cytotoxicity was assessed with the MTT assay with […] measured with a Power Wave 200 microplate reader.
Evaluation of drug interactions. The combination index (CI) isobologram method of Chou and Talalay, which is based on the median-effect principle, was used to calculate synergism or antagonism for the combined drug effects. Dose-effect curves for the two drugs, singly and in combination, in serially diluted concentrations were plotted using the median-effect equation and plot and the CI equation and plot. CI values at different effect and dose levels and isobolograms were generated automatically using the computer software CompuSyn. With this method, additive, synergistic, or antagonistic effects are indicated by CI values of 1, <1, and >1, respectively. Comparison of the ratio of doses required to reach a given effect level for each single drug and the drugs in combination was used to determine the dose-reduction.

| Structure (SMILES) | m, shape of the dose-effect curve |
| --- | --- |
| COc1ccc(C[C@@H](C)[C@@H](C)Cc2ccc(OC)c(OC)c2)cc1OC [M4N, tetra-O-methyl nordihydroguaiaretic acid] | 2.76 |
| CNC(=O)c1cc(Oc2ccc(NC(=O)Nc3ccc(Cl)c(C(F)(F)F)c3)cc2)ccn1 [sorafenib] | 0.41 |

From patent publication US9877978B2, “Compositions comprising NDGA derivatives and sorafenib and their use in treatment of cancer” (THE JOHNS HOPKINS UNIVERSITY, priority 2012, dated 2018)
